## Assay results

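Luminescence from an EWS-FLI1 target-promoter (NR0B1) reporter, set against a CMV-promoter reporter, two days after silencing single genes in TC32 Ewing sarcoma cells. Each siRNA was applied at 20 nM. A z-score of the log NR0B1-over-CMV signal, less the median of siRNAs with the same seed; more negative means a stronger specific loss of the NR0B1 reporter.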

The strongest results of the screen are mostly left out here. Sequences are the guide (antisense) strand, without overhang.

| # | strand | gene | seed-corrected z-score |
|---|---|---|---|
| 1 | `UUGUUGAUCAGAAUAUGGA` | RDH12 | 0.8342 |
| 2 | `AACCGGUUCAUCUCCGUCG` | GFY | 1.124 |
| 3 | `UUGGUAAUGUCGUAAAUCC` | E2F4 | -0.1165 |
| 4 | `UUACGGAAGAGUUAGACAG` | CRAMP1 | -0.2909 |
| 5 | `UCUGCUAGCUUAUUAAACC` | CDH10 | -0.2557 |
| 6 | `AAACUUGGACUUAUUCUCG` | ENO3 | 0.3272 |
| 7 | `AACCGUUUGAGUUGAGCUG` | PCDHGA4 | 0.8022 |
| 8 | `UGUCGUCCCAGAGGUACUC` | GBGT1 | -0.4625 |
| 9 | `UUGUUGUCAAGGUGAACUC` | MARK2P10 | -1.428 |
| 10 | `UUCAUAAUGUGCAAUAGCC` | NAPB | 1.719 |
| 11 | `UCCAGGACCCAGAUAUUGG` | CREG1 | -0.03239 |
| 12 | `UUCGUGUAAGAGAUAAUCA` | OR1G1 | 0.4335 |
| 13 | `UACAGAUCUAGUUUGCAUC` | IGFBPL1 | 0.9804 |
| 14 | `AACCGAUCAGCUAUGAUAG` | SLC8A1 | -0.06229 |
| 15 | `UUGGAUCUGAAAGAUAUCU` | SYNPR | 0.3861 |
| 16 | `UCCUGAUUAACUACAAAGG` | ZNF577 | 0.9566 |
| 17 | `AAUUCGAUUAAUCCAGAGG` | MRPL20 | -0.5019 |
| 18 | `UUCAUGUGAAGACUCGUGG` | SSH3 | 0.8186 |
| 19 | `AAUUGUAGAAUUCUGACGG` | KCNQ3 | -0.07396 |
| 20 | `UGACCUGUUAAUAUCAUCC` | USP8 | 0.2663 |
| 21 | `AAAAGGUUCACUGUGAGCU` | PRAMENP | -0.7965 |
| 22 | `UAUCCGAGAAUUUUCCAGG` | HAPLN1 | 0.1481 |
| 23 | `UCUGAUACUAGGGUGGUCC` | HCFC2 | 0.7424 |
| 24 | `UGCUCGUUUAGAAGUAAGG` | WAPL | 0.9269 |
| 25 | `UCAUGUUCUGAAUUGUUUC` | PSMD11 | -0.2146 |
| 26 | `UCUCUGAAAACCACUCCCG` | APOC1 | 0.4405 |
| 27 | `UCUGAUCUCUCCUAUGACC` | MED7 | 1.504 |
| 28 | `UUGAGUACUUGCAUCACCG` | ZMYM4 | -0.3237 |
| 29 | `UCUUCAACCCUAGUAAUGC` | PNPLA8 | -0.3891 |
| 30 | `UUACUUCGUUGAUUUGCUG` | CAGE1 | 0.2224 |
| 31 | `UGAAUUCCCACUUCCUCGC` | RGS6 | 0.2708 |
| 32 | `UGCAAUGCUACGAAGGUCC` | E2F1 | -0.2907 |
| 33 | `UUAACAAUGAAACAAAUCA` | NFKBIB | 0.4076 |
| 34 | `UCCCUUGUUCGGAUAGUUC` | MRPL44 | 0.1762 |
| 35 | `UUGUAUCCCAAAGAUGGUC` | GKN2 | -0.2076 |
| 36 | `ACAAUAGUCAAGUCGAUGU` | SDPR | 0.7631 |
| 37 | `UCUGUAAACGUGUAAGUCC` | ADAM8 | -0.5396 |
| 38 | `ACUGGAUUAACUAACAGUG` | TMEM70 | 0.4462 |
| 39 | `AAGAAUGCAGGCUUCAUGC` | TBX21 | -0.1266 |
| 40 | `AAAAUGUUUGUCUCUACUG` | ZNF394 | -0.4437 |
| 41 | `UAUCUUGUGGUGGUCUAUG` | S100A7L2 | 0.2413 |
| 42 | `AAUGCGUUCACCAUGCUUG` | C10orf88 | 0.1382 |
| 43 | `UUAUAGACAAUCUGGUAGC` | OLFML3 | 0.6009 |
| 44 | `UUCAUUUGGAAACCGUCUC` | HSPB9 | 0.03842 |
| 45 | `UCAGCUGAAAUCGUAAUGC` | CPNE3 | 0.002303 |
| 46 | `UAAUCAGGAAGAGCAAGGC` | CCDC170 | -1.516 |
| 47 | `UCAUUCAUGAGGCUCGUCC` | SEC11B | 0.2182 |
| 48 | `AAGCUGUCAUCGAAGAUGC` | RNF126 | -0.7247 |
| 49 | `UUUUCACAAAGGGAUGACU` | FAM157A | -0.5685 |
| 50 | `UAGGGUUACUGUUAGUCAC` | HLCS | -0.3643 |
| 51 | `UGAGUGAUUCUCUUACUCC` | EFCAB8 | -0.6322 |
| 52 | `UGUGCUAACAGUCAGUCUC` | LPAR1 | -0.9676 |
| 53 | `UUACGGGUAAAGCCUUUCC` | ZNF227 | 1.137 |
| 54 | `AAUUUUAUUACCAUACUGC` | PGBD2 | -0.1107 |
| 55 | `UAACUGUUUGGAUCGGUUG` | SLC25A21 | -0.01174 |
| 56 | `UCCUUUGUCACAUUCCGGG` | RNPS1 | -0.6423 |
| 57 | `AAAUGUCCCAGGCAACUGC` | SLC9B2 | 0.1248 |
| 58 | `UGAUGAAGUAGUCUCGCCC` | FRMPD4 | -0.4247 |
| 59 | `AUGGAAUAGACAGUGAUGC` | HEBP1 | 0.1277 |
| 60 | `UGCUCUGCAAGCUUGAUGA` | CTRC | -0.2703 |
| 61 | `AAAGCAAAAGGAAAGGUUC` | PRRT1 | 0.3034 |
| 62 | `UUUCAAUGCAGUCACAGUG` | TGIF1 | 0.04322 |
| 63 | `UCUAUUUCAUCAAUCACAG` | SPATA5L1 | -0.03252 |
| 64 | `UAAGAACUUACAUCACUGG` | GCG | -1.007 |
| 65 | `UUAACGUACACCUGGAGGC` | KCNMB2 | 0.4343 |
| 66 | `UGACUCAUAACCUCGUUGG` | TSNAXIP1 | 0.3423 |
| 67 | `AGUGAGAUAGGUGUUAUGC` | PLCB3 | -0.2888 |
| 68 | `UAGCGGUCCUUGAUCUUGC` | LMO1 | -0.1757 |
| 69 | `AUCCAUAAAAAGUUGAGCC` | OR4A15 | 0.2438 |
| 70 | `UGUUAAGUCCGUGAAGUUG` | KYNU | -0.02118 |
| 71 | `AUAUGGGUAGGUGUUUUCC` | CSN1S2AP | -1.581 |
| 72 | `AACUUGUCACCCUCUUUGC` | S100A4 | -0.358 |
| 73 | `ACAAUAUCUUGCAUGGUUC` | PCGF3 | -0.425 |
| 74 | `ACUUCCAUCAGCUCGAUGC` | MAGEA6 | 0.7286 |
| 75 | `UAAUCUCCUCGUAUAUCUC` | TIGD1 | 0.4278 |
| 76 | `UUAGGCUUUAACAUUAACU` | OCLM | 1.471 |
| 77 | `UAAGAACUCUUCCCAAACC` | ACSF3 | -0.5667 |
| 78 | `UUCCGUAGGCUUAUGAGCU` | RPL13AP6 | 0.7173 |
| 79 | `AAGGGAUAUAGGUCUGUGC` | LCE1B | -1.659 |
| 80 | `UAUGUUGUGAUGUCUAAUC` | NCAPH | -1.666 |
| 81 | `UUACCCACAAUGAUGACCG` | OSGIN1 | -0.6021 |
| 82 | `UUCGCUUCAUAUCUCGAUC` | PMPCA | 0.7505 |
| 83 | `UACGAUGCUAUAAUUGAGC` | USP50 | -0.2572 |
| 84 | `UCAUCCUUCUCGUUCAGGC` | CHRNB1 | 0.5106 |

The last 10 entries again:

* UAAUCUCCUCGUAUAUCUC against TIGD1 : seed-corrected z-score 0.4278
* UUAGGCUUUAACAUUAACU against OCLM : seed-corrected z-score 1.471
* UAAGAACUCUUCCCAAACC against ACSF3 : seed-corrected z-score -0.5667
* UUCCGUAGGCUUAUGAGCU against RPL13AP6 : seed-corrected z-score 0.7173
* AAGGGAUAUAGGUCUGUGC against LCE1B : seed-corrected z-score -1.659
* UAUGUUGUGAUGUCUAAUC against NCAPH : seed-corrected z-score -1.666
* UUACCCACAAUGAUGACCG against OSGIN1 : seed-corrected z-score -0.6021
* UUCGCUUCAUAUCUCGAUC against PMPCA : seed-corrected z-score 0.7505
* UACGAUGCUAUAAUUGAGC against USP50 : seed-corrected z-score -0.2572
* UCAUCCUUCUCGUUCAGGC against CHRNB1 : seed-corrected z-score 0.5106

Data taken from PubChem BioAssay AID1159506, deposited by NCATS (2015).